According to the supplement of paper PMC11732987, “Enantioselective OTUD7B fragment discovery through chemoproteomics screening and high-throughput optimisation” (Communications Chemistry, 2025):
This is one part of the list. The data scatter; read single values as rough.

These molecules were tested against T1, SH3RF1 C700 (UniProt Q7Z6J0) (assay: log2 mean competition ratio of IA-DTB cysteine labelling (DMSO/compound) (log2 ratio); higher = stronger cysteine engagement by compound). Conditions: 50 µM; treatment time: 4 h; cell line lysate: HEK293T.
T1 sequence (whole entry): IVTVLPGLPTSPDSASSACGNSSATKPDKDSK
Method: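 IA-DTB competitive cysteine chemoproteomics in HEK293T RIPA lysate. Lysates were treated with compound 29 or 30 at 50 or 200 µM for 4 h, then IA-DTB (500 µM, 1 h), trypsin-digested, NeutrAvidin-enriched and analysed by diaPASEF. Competition ratio = intensity DMSO / intensity compound (n=4 treated, n=64 DMSO); binding: mean log2 CR ≥ 1 and p ≤ 0.05 plus QC filters. Target is the cysteine site.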

SMILES | log2 mean competition ratio
O=C(CCl)N[C@H]1CCCc2ccccc21 | -0.403
O=C(CCl)N[C@@H]1CCCc2ccccc21 | -0.251

Same assay, conditions: 200 µM; treatment time: 4 h; cell line lysate: HEK293T

SMILES | log2 mean competition ratio
O=C(CCl)N[C@H]1CCCc2ccccc21 | 0.114
O=C(CCl)N[C@@H]1CCCc2ccccc21 | 0.0405
